# Measured values reported in PubChem BioAssay AID1508600 (Functional Genomics Laboratory (NCATS/FGL), 2020).
# Among all 53,000 sequences or so, about 3,700 (7%) were called active.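 Rule for the calls: active = gene knockdowns whose robust z-score for IL-1 alpha signal is at least 2 or at most -2, so actives lie on both sides; inactive = the rest.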 The list shows a part of the results.
# Experiment: Components of the Cytosolic LPS Sensing Pathway: Gene Identification via Genome-wide siRNA Screen;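 note: robust z of the log signal after scaling to non-targeting control siRNA wells of the plate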
# Details: RAW264.7 macrophages, IL-1a HTRF, actives lie on both sides, screened at 100 nM (by protocol), cells primed 5 h with Pam3CSK4 first
# In short: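 RAW264.7; siRNA 100 nM final, RNAiMAX, 48h 37 degrees C; Pam3CSK4 5 h; LipidA + TransIT-TKO 24 h; IL-1a HTRF; CellTiter-Glo viability; robust z vs negative-control median.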
row,Sequence,z-score
1,GGGUACGAUCGUGUGUUGUTT against Rpl8,inactive: 1.43
2,GGACCAUCCAUUGUGAUCUTT against Slc7a3,inactive: -1.32
3,GCAUGAAGUUGCACAUCCCTT against Cox8b,inactive: -0.42
4,GGAUAGGACAGAGAUAAAATT against Wnt2b,inactive: -0.216
5,GGUCACUGAAUUGUCAAUCTT against Polr3h,inactive: 0.773
6,GGUCAAUGCCUUUGAGUUUTT against Cdc42ep1,inactive: -0.366
7,CGUGUUUGCAUAAUGUUUATT against Arih1,inactive: -1.31
8,GGAAAUCAAGAAGCAGAUCTT against Epb41l1,inactive: 0.399
9,GCAGCCUAUGGAAGAUCACTT against Tle4,active: 2.8
10,GGGAUCAACAUUUACCGAATT against Ablim1,inactive: 0.596
11,GCCUGAACUCCUAUGAGCUTT against Krt42,inactive: 1.18
12,GGCUACAAAGGAGUUCCUATT against Sgf29,inactive: 0.516
13,GGAACCAGUCGACUACUAUTT against Sstr1,inactive: 0.214
14,CGGCAGAAGGGUUUUUAUGTT against Rnf126,inactive: -0.365
15,GGCUCAGCUAGAGGUUUCUTT against Ugt1a10,inactive: -0.989
16,GGGCCUUAAUUUUCCUUUUTT against Podxl,inactive: -0.107
17,CCAAAUGCUAAGUAUACCUTT against Abhd17b,inactive: -1.32
18,GGGAGAAACCAUUUCAAGATT against Gm5084,inactive: 0.0759
19,GCUGAUAACAGACAUCAUCTT against Pitpnm2,inactive: 0.836
20,CGGUGUUUGAAAUCGUGCATT against Dgcr6,inactive: 0.533
21,CCUCAAAUUAUUGUUGGCATT against Ppip5k1,active: -2.07
22,GCUUUAGUACAGGCCUCUATT against Tent4a,inactive: 0.444
23,CCAAGAGAACUAUUCAGUUTT against Tuba8,inactive: 0.994
24,GGCUUUAGAGACAAUAUCATT against Zfand2a,inactive: 0.403
25,GGCACUCCAUAGUGAUUUCTT against 5730522E02Rik,inactive: 0.714
26,GGAUAAGCAGUACUUUAAATT against Tiprl,inactive: -0.277
27,CCAAUGCUUCGUGAAAGACTT against Eras,inactive: -0.382

row,Sequence,z-score
1,GCUUCAUCGCAUGAACCGATT against Rabggtb,inactive: -0.0795
2,GGCAUUGCACAAAAUCUAATT against Slc22a22,inactive: 0.909
3,GGUGUGUCGAAGUCGAAGGTT against Pip5kl1,inactive: -1.11
4,GGGAGUUACCGUUUUGUAUTT against Herc1,inactive: -0.818
5,GUGGGAAACAUUUAAUGCCTT against Vmn1r81,inactive: -1.06
6,GGCUGCUACACAUGCAGAUTT against Gucy2e,inactive: 0.426
7,GGCAUGGAGAUGCUACUGATT against Ptk2,inactive: -0.904
8,GGUGAUGGUGUAAAAUACATT against Dab2,active: 4.98
9,GCUCAUCGUGUUUUCAACCTT against Cbr3,inactive: -0.034
10,CCAGUACCUCAAUAUCAAATT against Lsm2,inactive: 0.533
11,GGAUCAUUAGCAAACACAATT against Capn1,inactive: 0.104
12,GCAUAUUUCCGAGGAUCAATT against Poglut1,inactive: -1.14
13,GGAAUGAACCUAUCUUAUATT against Prkab1,inactive: 1.14
14,GGCACAUUGCUGAAGCCCATT against Aldoa,active: -2.42
15,GGUAUAAUUGGAAUUGUGATT against Morc1,inactive: -0.658
16,GGAUUUACCACCAAUUAAATT against Vars,inactive: -0.393
17,GCAGCCUAUUACCUCAGACTT against Nwd2,inactive: 1.02
18,GGAUUUUAAACCUUAAGGUTT against Ssty1,inactive: 0.49
19,GGUCUUCUUGACAAUGUAATT against Bpnt1,inactive: 0.31
20,GGACAUUGUCUAUUAUUGGTT against Gabrd,inactive: -0.585
21,GGUGCUUAUAUUGCUUCCCTT against Psmb5,inactive: -0.147
22,GAACAUGGAAAGCAGCAUUTT against Lce1m,inactive: -0.757
23,GAUAUGCAAGGAGGAGGCATT against Pramel37,inactive: -0.229
24,GGACUUGACCUCAAGGGAATT against Sox6,active: 2.35
25,GCACAUAUCGUGUCUCAAATT against Plgrkt,inactive: -0.809
26,GACACCCUGUGACACCAAGTT against Sprr1b,inactive: -0.597
27,GCGCGACAACCUGAUUCAATT against Nlrx1,inactive: -0.0305

# Nothing new here: an excerpt of the list.
row,Sequence,z-score
7,GGCAUGGAGAUGCUACUGATT against Ptk2,inactive: -0.904
8,GGUGAUGGUGUAAAAUACATT against Dab2,active: 4.98
9,GCUCAUCGUGUUUUCAACCTT against Cbr3,inactive: -0.034
10,CCAGUACCUCAAUAUCAAATT against Lsm2,inactive: 0.533
11,GGAUCAUUAGCAAACACAATT against Capn1,inactive: 0.104
12,GCAUAUUUCCGAGGAUCAATT against Poglut1,inactive: -1.14
13,GGAAUGAACCUAUCUUAUATT against Prkab1,inactive: 1.14
14,GGCACAUUGCUGAAGCCCATT against Aldoa,active: -2.42
15,GGUAUAAUUGGAAUUGUGATT against Morc1,inactive: -0.658
16,GGAUUUACCACCAAUUAAATT against Vars,inactive: -0.393
17,GCAGCCUAUUACCUCAGACTT against Nwd2,inactive: 1.02
18,GGAUUUUAAACCUUAAGGUTT against Ssty1,inactive: 0.49
19,GGUCUUCUUGACAAUGUAATT against Bpnt1,inactive: 0.31
